Results from doi:10.1101/768242.
Results are given in words; binding and its absence hold for the method and conditions named. Some binding calls cover weakened binding; strength is not graded here.

Amino acid sequences for entries named in this document (tags omitted). Residues count along the entry.
UniProt P35222: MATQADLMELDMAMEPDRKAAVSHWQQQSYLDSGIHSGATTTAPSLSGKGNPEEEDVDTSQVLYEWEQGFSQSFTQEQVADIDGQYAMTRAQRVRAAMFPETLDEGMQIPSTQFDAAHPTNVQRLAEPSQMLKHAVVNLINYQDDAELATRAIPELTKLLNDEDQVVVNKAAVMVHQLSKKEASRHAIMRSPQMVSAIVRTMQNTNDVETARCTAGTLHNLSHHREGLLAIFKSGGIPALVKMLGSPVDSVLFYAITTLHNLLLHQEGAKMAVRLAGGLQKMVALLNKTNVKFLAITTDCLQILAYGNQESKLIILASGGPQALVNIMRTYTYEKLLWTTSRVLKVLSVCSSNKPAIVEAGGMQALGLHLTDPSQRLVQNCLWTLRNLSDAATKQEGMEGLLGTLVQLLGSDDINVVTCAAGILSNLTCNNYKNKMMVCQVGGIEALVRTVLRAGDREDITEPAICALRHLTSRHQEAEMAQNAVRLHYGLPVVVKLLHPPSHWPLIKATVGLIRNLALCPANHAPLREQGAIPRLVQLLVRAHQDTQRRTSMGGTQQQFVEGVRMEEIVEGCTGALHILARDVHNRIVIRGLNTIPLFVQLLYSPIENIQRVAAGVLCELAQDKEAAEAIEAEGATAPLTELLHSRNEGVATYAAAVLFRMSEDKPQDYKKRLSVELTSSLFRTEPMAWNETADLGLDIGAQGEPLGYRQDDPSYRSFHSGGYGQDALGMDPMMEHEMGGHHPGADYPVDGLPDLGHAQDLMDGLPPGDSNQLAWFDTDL
UniProt O15169, residues 384-518: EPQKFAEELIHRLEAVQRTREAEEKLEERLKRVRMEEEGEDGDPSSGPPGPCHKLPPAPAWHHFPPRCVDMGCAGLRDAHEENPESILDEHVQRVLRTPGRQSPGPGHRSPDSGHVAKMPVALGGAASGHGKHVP

Target: unprimed β-catenin (human) (UniProt P35222)
Experiment: BLI

binding: binds
Substance: Axin_(384-518) (miniAxin) (from UniProt O15169-2 384-518) (domain or fragment)
